Drawing on PubChem BioAssay AID493014 (National Center for Advancing Translational Sciences (NCATS), 2011), this text covers AC50 for 42 compounds.

The nature of this assay: qHTS Assay to Find Inhibitors of Chronic Active B-Cell Receptor Signaling. As to conditions: ABC-DLBCL IkBa-CBG/CBR reporter, luminescence ratio (green luciferase fused to IkBa over red control in TMD8 lymphoma cells), 4 h. In a few lines:
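Doxycycline induced both beetle luciferases in TMD8 lymphoma cells; IKK-driven degradation limits the IkappaBalpha-fused green signal, while red luminescence normalises for cell number and nonspecific effects. Compounds tested up to 46 uM, 4 hrs.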
A general note: In qHTS, concentration-response curves come from the screen itself.

Setting [1] is: measured here: CBR red luminescence, cell number.

This is one part of the list. These are further read-outs of the screen, such as a control signal, another cell line or another target. No call is given for them. The list favours compounds with an active or inconclusive main result. Words in brackets tell the shape of the fitted curve; partial curves, single points and poor fits give uncertain potencies.

Broadly, the AC50 is the midpoint of the concentration-response curve, whichever way the signal moves. Consider `CCC(Sc1ccc(Cl)cc1)C(=O)Nc1nnc(-c2cccc([N+](=O)[O-])c2)s1` (configuration not stated), for which, under setting [1], the AC50 was 16.4 µM [rising, partial curve]. The same measure, in the same setting: the same measure for `N#CNC(=Nc1ccc(F)cc1)SCc1ccccc1`: 11.6 µM [falling, partial curve, poor fit]. The same measure, in the same setting: the same measure for `CN(C)/C=C(/C#N)C(=O)c1cccc(Oc2ccc(C(C)(C)C)cc2)c1`: 2.59 µM [falling, partial curve]; for `Cc1ccc(NC(=O)CN2C(=O)NC(Cc3ccccc3)C2=O)c(Br)c1` (configuration not stated): 14.1 µM [rising, single point]. For `CCCCn1c(SCC(=O)N2CCCC2)nc2c1c(=O)n(C)c(=O)n2C`, under setting [1], the AC50 is 2.24 µM [falling, partial curve, poor fit]. Consider `O=C1CCCC2=C1C1(CCCC1)N=C(Nc1nc3ccccc3s1)N2`, for which the AC50 under setting [1] is 15.8 µM [falling, single point].

`COC(=O)C1=C(C)N(c2cc(Cl)cc(Cl)c2)C(=O)C1`: under setting [1], the AC50 is 10 µM [falling, partial curve]. With `Cc1sc(NC(=O)CSc2nnc(-c3ccccc3)o2)c(C#N)c1C`, the AC50 under setting [1] is 3.55 µM [rising, partial curve, poor fit].

For the compound `Cc1cc2ncn(/N=C/c3ccc4c(c3)OCO4)c2cc1C`, the AC50 under setting [1] is 5.62 µM [rising, single point].

In the case of `O=C(Nc1ccc(OC(F)(F)F)cc1)c1ccc2ccccc2n1`, under setting [1], the AC50 was 7.08 µM [rising, partial curve, poor fit].

`O=C(N/N=C/c1c[nH]c2ccc(Br)cc12)c1ccccn1`: the half-maximal activity concentration (AC50) under setting [1] is 17.8 µM [falling, single point].

As for `NS(=O)(=O)c1ccc2nc(NC(=O)c3ccncc3)sc2c1`, under setting [1], the AC50 was 2 µM [falling, full curve]. Regarding `CCC(=O)OCCNc1cc(Sc2nccn2C)c2nonc2c1[N+](=O)[O-]`, the AC50 (measured here: IkBa-CBG green luminescence) is 6.51 µM [falling, single point]. `C=CCNc1cc(C(F)(F)F)nc(-c2ccccn2)n1`: under setting [1], the AC50 is 35.5 µM [falling, partial curve, poor fit]. Take `COc1cccc(-c2nnc3sc(-c4ccc(C)cc4)nn23)c1`: the AC50 under setting [1] was 12.6 µM [rising, partial curve, poor fit].

With `Cc1ccc(C(=O)N2c3ccccc3N(Cc3ccccc3)C(=O)C2(C)C)cc1`, the AC50 under setting [1] was 0.708 µM [falling, full curve, poor fit].

Regarding `Cc1nc2nc(SCc3ccc(F)cc3Cl)nn2c(C)c1Cc1ccccc1`, under setting [1], the AC50 is 8.91 µM [rising, partial curve, poor fit]. As for `CSc1ccc(C(=O)C2CCCN(C(=O)c3nn(C)c(=O)c4ccccc34)C2)cc1` (configuration not stated), the AC50 under setting [1] was 35.5 µM [rising, single point].

As to `COc1cccc(C(=O)NNC2=C(C(=O)C(F)(F)F)CCC2)c1`, under setting [1], the AC50 was 3.55 µM [falling, partial curve, poor fit]. Turning to `CCCCOc1ccc(C(=O)CCN2CCCCC2)cc1`, the AC50 under setting [1] was 25.9 µM [falling, partial curve, poor fit].

For the compound `COc1ccccc1-c1nnc(SCC(=O)NC2CCCCC2)o1`, under setting [1], the AC50 is 29.1 µM [falling, single point]. `NC(=O)C(=CNc1nc(-c2ccc(Cl)c(Cl)c2)cs1)C(N)=O`: the AC50 under setting [1] is 5.62 µM [falling, single point]. Take `COC(=O)C1=CN(c2ccc(F)cc2)C=C(C(=O)OC)C1c1ccc(O)cc1`: the AC50 under setting [1] was 6.31 µM [rising, single point]. Consider `Cc1oc(CC(C)C)c(CN)c1C(=O)O`, for which the AC50 under setting [1] is 29.1 µM [rising, single point]. As to `CCCCN(C(=O)CSc1cc(C)c2ccc(OC)cc2n1)c1c(N)n(Cc2ccccc2)c(=O)[nH]c1=O`, the concentration at half-maximal activity (AC50) under setting [1] was 32.6 µM [falling, single point]. For the compound `CCCn1c(N)c(C(=O)CN2CCN(S(=O)(=O)c3cccc(Cl)c3)CC2)c(=O)[nH]c1=O`, the AC50 under setting [1] is 29.1 µM [falling, single point].

As to `C[C@@H]1C=C(C(=O)NCc2nc3ccccc3[nH]2)O[C@H](OCc2ccc(CO)cc2)C1`, the AC50 under setting [1] is 10 µM [falling, partial curve, poor fit]. With `COc1ccc(NC(=O)COc2ccc(CNCCCN3CCOCC3)cc2OC)cc1`, the half-maximal activity concentration (AC50) under setting [1] is 25.1 µM [falling, single point].

As to `COCCNC(=O)Cc1c(C)c2cc3c(cc2oc1=O)OC(C)(C)CC3`, the AC50 under setting [1] is 3.98 µM [rising, single point]. As to `COc1cccc(NC(=O)CSc2nc3ncc(Br)cc3[nH]2)c1`, under setting [1], the AC50 is 10 µM [falling, partial curve].

For `C=CCc1c(C)nc2cc(-c3ccccc3)[nH]n2c1=O`, under setting [1], the AC50 was 35.5 µM [falling, single point]. Same read-out and setting: the same measure for `CC(=O)c1ccc(Cc2cnc(N)s2)cc1`: 29.1 µM [rising, single point]; for `CN(C)/C=N/c1c(C#N)cnn1-c1nc2ccccc2s1`: 6.31 µM [rising, partial curve, poor fit]. Take `COc1c(/C=C2\SC(=Nc3ccccc3Cl)NC2=O)cccc1[N+](=O)[O-]`: the AC50 under setting [1] is 11.2 µM [falling, partial curve, poor fit].

For `Cc1nn(C)c(C)c1NS(=O)(=O)c1ccccc1`, the AC50 under setting [1] is 29.1 µM [rising, single point].

`CC(NC(c1ccccc1)c1ccccc1)C(=O)N1CCCc2ccccc21` (configuration not stated): under setting [1], the AC50 is 23.1 µM [falling, partial curve, poor fit]. Still for that read-out and setting: in the case of `Cc1nn2cc(-c3cccc(Cl)c3)cnc2c1Br` it was 0.398 µM [rising, full curve, poor fit]; in that of `O=C(CCc1nnc(C2(c3ccc(Cl)cc3)CCC2)o1)NC1CC1`, 0.112 µM [rising, full curve, poor fit]. Same read-out and setting: in the case of `CCOC(=O)C1=C(COC(=O)/C=C/c2ccc(SC)cc2)NC(=O)NC1C` (configuration not stated) it was 0.082 µM [falling, partial curve, poor fit]; in that of `COc1cc(OC)cc(C(=O)NCC(=O)OCC(=O)c2cc(OC)ccc2OC)c1`, 0.146 µM [rising, full curve, poor fit]; in that of `c1ccn2cc(-c3ccc4c(c3)OCCO4)nc2c1`, 12.6 µM [falling, partial curve]. Regarding `Cc1ccc(-c2noc(CSc3nnc(-c4ccncc4)n3-c3ccc(F)cc3)n2)cc1`, the concentration at half-maximal activity (AC50) under setting [1] is 29.1 µM [rising, single point].
